Measured data: PubChem BioAssay AID720505 (Drosophila RNAi Screening Center, 2013)

- Assay: 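Genes needed for store-operated calcium entry in fly cells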 (primary screen)
- Cell system: Drosophila S2R+ cells
- Knock-down reagent: long dsRNA against Drosophila genes
- Treatment: thapsigargin (2 µM) in calcium-free buffer to empty internal stores, then 2 mM calcium added back
- Read-out: 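Stores emptied by 2 µM thapsigargin without calcium, then 2 mM calcium re-added; fluo-4 fluorescence followed by FLIPR in 384-well plates, per-well averaged endpoint, raw; two screen passes, some wells retested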
- Scale: calcium signal and retest calcium signal: higher = more calcium entry after store depletion
- Rule for the call: 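About 1500 genes called as lowering calcium entry, by varying amounts, judged against per-plate control wells with STIM1 as positive and Rho1 as negative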
- Calls: active = called as lowering calcium entry; inactive = not called
In all, the deposit lists about 20,000 reagents; shown is an unselected part of those that have a named target and a result. In the full data, about 2,100 (10%) were called active. 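Raw plate signals without normalisation; calls rest on control-based scores that were not deposited; replicate 2 separates called from uncalled poorly.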 A number with no mark means an inactive call. Reagents against one gene are numbered here. Not stated in the record: the amount of reagent, the time to read-out.

target gene | reagent no. | calcium signal, replicate 1 | calcium signal, replicate 2 | retest calcium signal, replicate 1 | retest calcium signal, replicate 2
ND-B18 (NADH dehydrogenase (ubiquinone) B18 subunit) | 1 | 69.5 (active) | 129 | – | –
Dbx | 1 | 66.8 (active) | 58.9 | – | –
Dbx | 2 | 55.9 | 114 | – | –
Dbx | 3 | 75.4 | 98.6 | – | –
CG1785 | 1 | 130 | 107 | – | –
CG15461 | 1 | 113 | 87.1 | – | –
gfzf (GST-containing FLYWCH zinc-finger protein) | 1 | 86.9 | 110 | – | –
gfzf (GST-containing FLYWCH zinc-finger protein) | 2 | 42.4 (active) | 107 | – | –
AP-1gamma (Adaptor Protein complex 1, gamma subunit) | 1 | 67.8 | 95.7 | – | –
CG32452 | 1 | 88.4 | 136 | – | –
CG13282 | 1 | 77.2 (active) | 90.9 | – | –
Nop60B (Nucleolar protein at 60B) | 1 | 162 | 80.3 | – | –
CG12420 | 1 | 118 | 102 | 8155 | 134
CG13531 | 1 | 105 | 224 | – | –
RpS5a (Ribosomal protein S5a) | 1 | 75.3 (active) | 96.1 | – | –
Gk2 (Glycerol kinase 2) | 1 | 101 | 98.5 | – | –
CG14694 | 1 | 151 | 74.7 | – | –
nmo (nemo) | 1 | 92.4 | 138 | – | –
Ice2 (Interacts with the C terminus of ELL 2) | 1 | 172 | 274 | – | –
CG17917 | 1 | 115 | 138 | – | –

Not a retest: 4 of the entries above.
target gene | reagent no. | calcium signal, replicate 1 | calcium signal, replicate 2 | retest calcium signal, replicate 1 | retest calcium signal, replicate 2
Nop60B (Nucleolar protein at 60B) | 1 | 162 | 80.3 | – | –
CG12420 | 1 | 118 | 102 | 8155 | 134
CG13531 | 1 | 105 | 224 | – | –
RpS5a (Ribosomal protein S5a) | 1 | 75.3 (active) | 96.1 | – | –

The list goes on.
target gene | reagent no. | calcium signal, replicate 1 | calcium signal, replicate 2 | retest calcium signal, replicate 1 | retest calcium signal, replicate 2
GstE11 (Glutathione S transferase E11) | 1 | 141 | 94.9 | – | –
Cog4 (Component of oligomeric golgi complex 4) | 1 | 93.8 | 121 | – | –
RhoGAP54D (Rho GTPase activating protein at 54D) | 1 | 146 | 125 | – | –
PolD2 (DNA polymerase delta subunit 2) | 1 | 160 | 97.7 | – | –
AQP (aquaporin) | 1 | 126 | 157 | – | –
CG15040 | 1 | 110 | 179 | – | –
CG15040 | 2 | 111 | 125 | – | –
CG9876 | 1 | 104 | 269 | – | –
CG15107 | 1 | 130 | 158 | – | –
pix (pixie) | 1 | 55 (active) | 41 | – | –
CG7362 | 1 | 145 | 138 | 99.6 | 81.5
ERp44 (Endoplasmic reticulum protein 44) | 1 | 159 | 125 | – | –
CG13461 | 1 | 106 | 160 | – | –
beat-VI (beaten path VI) | 1 | 158 | 165 | – | –
beat-VI (beaten path VI) | 2 | 172 | 129 | – | –
CG30172 | 1 | 136 | 105 | – | –
CG7379 | 1 | 51 (active) | 191 | 269 | 70.1
CG13151 | 1 | 117 | 166 | – | –
Mctp (Multiple C2 domain and transmembrane region protein) | 1 | 179 | 151 | – | –
Mctp (Multiple C2 domain and transmembrane region protein) | 2 | 101 | 157 | – | –
smp-30 (Senescence marker protein-30) | 1 | 71.3 | 110 | – | –
Sfp26Ad (Seminal fluid protein 26Ad) | 1 | 111 | 128 | – | –
eEF1beta (eukaryotic translation elongation factor 1 beta) | 1 | 171 | 92 | – | –
qkr58E-1 (quaking related 58E-1) | 1 | 175 | 93.9 | – | –
Spn55B (Serpin 55B) | 1 | 158 | 94.9 | 109 | 97.7
Spn55B (Serpin 55B) | 2 | 70.8 | 146 | – | –
Nf-YB (Nuclear factor Y-box B) | 1 | 227 | 106 | – | –
sgl (sugarless) | 1 | 163 | 117 | – | –
CG33310 | 1 | 107 | 111 | – | –
sbr (small bristles) | 1 | 73.7 (active) | 56 | – | –
sbr (small bristles) | 2 | 48.1 (active) | 40.3 | – | –
CG31787 | 1 | 66.3 (active) | 220 | – | –
CG34198 | 1 | 80.7 | 102 | – | –
MtnC (Metallothionein C) | 1 | 94.1 | 113 | – | –
CG4080 | 1 | 99.1 | 131 | – | –
Sil1 (Sil1 nucleotide exchange factor) | 1 | 241 | 236 | – | –
